A short description of this data set: Thioanisole trapping experiment during photo-bleaching. As to conditions: butanol solution.

We go through one compound from US7592188B2, “Live cell biosensors” (The Scripps Research Institute, priority 2004, dated 2009).

Compound `CCN1/C(=C\C=C\C=C2C(=O)N(C)C(=S)N(C)C2=O)Sc2ccccc21` [dye 1b, 1,3-Dimethyl-5-[(2E,4E)-4-(3-ethyl-1,3-benzothiazol-2(3H)-ylidene)-but-2-enylidene]-2-thioxodihydropyrimidine-4,6(1H,5H)-dione] had a phenylmethyl sulfone generated of 10% and a phenylmethylsulfoxide generated of 90%.
